In article PMC7993737 one finds binding data, which are given here for two substances.

Chains of the proteins cited; added tags and fusions are not shown.
UniProt P25490: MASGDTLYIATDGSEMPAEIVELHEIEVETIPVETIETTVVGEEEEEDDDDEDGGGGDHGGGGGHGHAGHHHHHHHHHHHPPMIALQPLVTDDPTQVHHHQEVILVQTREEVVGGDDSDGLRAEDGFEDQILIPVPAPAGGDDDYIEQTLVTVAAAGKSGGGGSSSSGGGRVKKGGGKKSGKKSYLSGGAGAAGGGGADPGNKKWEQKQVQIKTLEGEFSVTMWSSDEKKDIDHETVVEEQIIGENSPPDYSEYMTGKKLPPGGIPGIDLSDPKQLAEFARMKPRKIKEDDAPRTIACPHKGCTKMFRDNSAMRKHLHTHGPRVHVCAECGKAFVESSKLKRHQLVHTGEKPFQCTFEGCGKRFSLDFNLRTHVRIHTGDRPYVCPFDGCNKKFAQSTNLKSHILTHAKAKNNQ
UniProt Q8N6T7: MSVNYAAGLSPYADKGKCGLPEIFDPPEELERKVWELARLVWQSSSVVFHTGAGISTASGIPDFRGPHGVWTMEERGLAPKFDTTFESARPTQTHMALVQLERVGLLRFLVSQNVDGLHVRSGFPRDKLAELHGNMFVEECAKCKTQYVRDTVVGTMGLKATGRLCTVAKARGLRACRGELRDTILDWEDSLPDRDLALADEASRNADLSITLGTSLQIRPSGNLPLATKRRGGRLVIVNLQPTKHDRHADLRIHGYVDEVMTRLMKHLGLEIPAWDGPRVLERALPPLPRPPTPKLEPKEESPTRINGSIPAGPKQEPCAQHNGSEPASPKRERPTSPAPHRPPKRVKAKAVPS

The target in test [1] is YY1-Flag (from pCMV-YY1-Flag) (UniProt P25490). The test can be described thus: co-IP; SH-SY5Y cells transfected with pCMV-Sirt6-Flag and pCMV-YY1-Flag, mock cells as negative controls; cleared lysate (150mM KCl, 0.1% Triton X-100, 25mM Tris pH 7.5, 5% glycerol, 0.2mM EDTA, 1mM DTT) on Anti-Flag Affinity gel 2 hours at 4 C; washes with 150mM and 300mM KCl buffer; eluted with flag peptide; immunoblot. In general terms: In western blotting, separated proteins are transferred to a membrane and probed.

For test [2], the target named is SIRT6-Flag (from pCMV-Sirt6-Flag) (UniProt Q8N6T7). Described as above.

These are yes or no findings as the source states them, for the method shown. In cells and extracts the contact can be indirect. Some binding calls cover weakened binding; strength is not graded here.

Regarding “SIRT6 (detected with anti-SIRT6 in the Flag eluate of YY1-Flag cells) (from UniProt Q8N6T7 1-355)”, the binding entry in test [1] was “binds”. As for “YY1 (detected with anti-YY1 in the Flag eluate of SIRT6-Flag cells) (from UniProt P25490 1-414)”, the binding result in test [2] was “binds”.
